Data from PubChem BioAssay AID2158 (National Center for Advancing Translational Sciences (NCATS), 2009).
Where “and” joins values, the source holds several entries; their conditions need not be identical. Equal entries are not always repeated. Inconclusive results, whose numbers are uncertain, are shown with a selection of clear calls. Potencies of inconclusive entries are doubtful fits and often do not repeat. Calls of active or inactive are those of the source. Calls follow the shape of the dose curve; as a rule, active = well fitted inhibition curve with a large enough effect; inconclusive = small, poorly fitted or top-dose-only effect; inactive = no such curve, though single readings can be large or run the other way.

Amino acid sequences for entries named in this document (tags omitted). Residues count along the entry.
UniProt P25779, 123-467 limits assumed: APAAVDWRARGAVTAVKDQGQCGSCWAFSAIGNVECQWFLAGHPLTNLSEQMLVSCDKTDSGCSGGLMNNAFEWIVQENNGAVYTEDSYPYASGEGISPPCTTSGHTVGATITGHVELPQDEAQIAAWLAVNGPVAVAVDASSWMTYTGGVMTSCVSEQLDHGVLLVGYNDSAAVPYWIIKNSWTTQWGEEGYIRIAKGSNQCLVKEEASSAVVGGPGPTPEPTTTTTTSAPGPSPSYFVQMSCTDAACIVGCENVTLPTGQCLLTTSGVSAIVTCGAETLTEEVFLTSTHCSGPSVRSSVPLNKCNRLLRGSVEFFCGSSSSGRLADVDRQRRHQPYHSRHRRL

The compounds below were run against Cruzipain (Trypanosoma cruzi) (UniProt P25779) (assay: Confirmation qHTS Assay for Inhibitors of Cruzain). Settings: purified cruzain, Z-FR-AMC fluorescence, 0.01% Triton.
Description: Cruzain is a cysteine protease from the tropical parasite Trypanosoma cruzi. This assay protocol is a follow-up and confirmation of related AID 1478 (qHTS Assay for Promiscuous and Specific Inhibitors of Cruzain -- with detergent). Cruzain was assayed by the use of fluorogenic coumarin-based substrate Z-FR-AMC: proteolytic cleavage releases AMC, whose fluorescence is measured at 360 nm excitation and 450 nm emission. Purified cruzain was supplied by the labs of Prof. James McKerrow and Brian Shoichet, UC San Francisco. This assay had 0.01% Triton X-100 concentration. See following references for additional details: Jadhav A, et al. J Med Chem. 2010 Jan 14;53(1):37-51. Mott BT, et al. J Med Chem. 2010 Jan 14;53(1):52-60. Assay Provider: Shoichet, Brian; University of California, San Fancisco Screening Center PI: Austin, C.P. Screening Center: NIH Chemical Genomics Center [NCGC]
Buffer: 100 mM Sodium Acetate, pH 5.5, 5 mM DTT, Triton X-100 concentration: 0.01%. Reagents/Controls: Buffer in columns 3 and 4 as negative control (no enzyme). Substrate solution: 2 uM final concentration of Z-FR-AMC (catalog number I-1160, Bachem) dispensed throughout the plate. Enzyme: 1.5 nM Cruzain final concentration in columns 1, 2, 5-48. Column 1 is neutral (100% activity). Column 2 contained titration of covalent inhibitor K11777, starting concentration 1 mM, then 1:2 dilution in duplicate). Assay Steps: Three uL of enzyme or buffer were dispensed to 1536-well Greiner black solid bottom plates. Compounds and controls (23 nL) were transferred via Kalypsys PinTool. The plates were incubated for 15 min at room temperature, and then 1 uL of substrate solution was added to start the reaction. The plates were immediately transferred to and read 4 times every 30 seconds for 2 min on ViewLux High-throughput CCD imager (Perkin-Elmer) using 360 nm excitation and 450 nm emission fluorescence protocol. The fluorescence intensity difference between the third and the first time points (time lapse of 60 seconds) was used to compute reaction progress.
Also: nearly all actives have a fitted effect of over 40% in size.
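For activity change, negative = inhibition in this document: plate controls were uninhibited enzyme control for no effect and buffer wells lacking enzyme for full effect.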
Potency is read from the fitted curve at half-maximal effect.

| SMILES | Potency | activity change, negative = inhibition |
| --- | --- | --- |
| CCCn1c2ccc(F)cc2c2nnc(SCCN(CC)CC)nc21 | inconclusive: 39.8 µM [inhibitor, partial curve, poor fit] |  |
| C#Cc1nc(Nc2cccc(Cl)c2)nc(NC2CCCC2)n1 | inconclusive: 28.2 µM [inhibitor, partial curve] |  |
| CC(C)CC(=O)O/N=C1\C(=O)N(c2ccccc2)c2ccccc21 | inconclusive: 0.794 µM [inhibitor, full curve] |  |
| O=C(CNC(=O)C1CCCCC1)OCC(=O)c1ccc(C2CCCCC2)cc1 | inconclusive: 14.1 µM [inhibitor, partial curve] |  |
| Cc1cccc(C(=O)NC2CCN(C#N)CC2)c1 |  | inactive: -3.52% and inactive: 7.39% |
| CC(=O)N1CCN(C(=S)c2ccc(-c3ccc(Cl)cc3)o2)CC1 | inconclusive: 15.8 µM [inhibitor, full curve] |  |
| O=[N+]([O-])c1ccccc1S(=O)(=O)NCC1CCC(CNCC2CCc3ccccc3C2)CC1 (stereo not given) |  | inactive: -5.24% |
| CCn1c2ccc(F)cc2c2nnc(SCCN3CCCCC3)nc21 | inconclusive: 15.8 µM [inhibitor, partial curve, poor fit] |  |
| CC[C@@H](C)[C@H](NC(=O)OC(C)(C)C)c1nnc(S(=O)(=O)Cc2cc(C)ccc2C)o1 | active: 14.1 µM |  |
| CCOC(=O)C(C(=O)OCC)N(C#N)c1nc(OC)nc(N(C)C)n1 | active: 15.8 µM |  |
| Cc1ccc(S(=O)(=O)c2nc(-c3ccco3)oc2NCC2CCCO2)cc1 (stereo not given) | inconclusive: 35.5 µM [inhibitor, partial curve, poor fit] |  |
| CC(=O)Oc1ccc(C(=O)COC(=O)CNC(=O)COc2ccccc2C)cc1 | inconclusive: 8.91 µM [inhibitor, full curve, poor fit] |  |
| COc1cc(-c2nn3c(-c4cc(-c5ccccc5)n[nH]4)nnc3s2)cc(OC)c1OC |  | inactive: -7.01% |
| O=C(CNC(=O)C1CCCCC1)OCc1ccccc1 | inconclusive: 35.5 µM [inhibitor, partial curve] |  |
| Cn1cc(S(=O)(=O)N2CCCCC2)cc1C(=O)NCc1ccc(Cl)cc1 | inconclusive: 56.2 µM [inhibitor, partial curve, poor fit] |  |
| O=C(COC(=O)CNC(=O)C1CCCCC1)Nc1cc(C(F)(F)F)ccc1Cl | active: 2.82 µM |  |
| COc1ccc(C(=O)NCC(=O)OC(C(=O)Nc2cc(C(F)(F)F)ccc2Cl)c2ccccc2)cc1OC (stereo not given) | inconclusive: 14.1 µM [inhibitor, full curve] |  |
| Nc1nc(N)c2nc(-c3ccccc3)c(N)nc2n1 | inconclusive: 251 µM [inhibitor, partial curve, poor fit] |  |
| Nc1c(C(=O)NCCC2=CCCCC2)sc2ccc(S(=O)(=O)N3CCCCC3)cc12 | inconclusive: 25.1 µM [inhibitor, partial curve, poor fit] |  |
| N#Cc1nc(Nc2ccccc2)nc(NC2CCCCC2)n1 | active: 1.41 µM |  |

| SMILES | Potency | activity change, negative = inhibition |
| --- | --- | --- |
| Cc1cc(OCC(=O)Nc2ccc(N3CCCC3)cc2)cc(C)c1Cl |  | inactive: -30.4% |
| CNc1oc(Cc2ccccc2)nc1S(=O)(=O)c1ccc(Cl)cc1 | active: 25.1 µM |  |
| CCn1cnc2c(Nc3ccc(CC(=O)N=C(N)N)cc3)nc(C#N)nc21 | inconclusive: 35.5 µM [inhibitor, partial curve] |  |
| O=C(COC(=O)c1cccc2ccccc12)NCCCc1ccccc1 | inconclusive: 12.6 µM [inhibitor, full curve] |  |
| CS(=O)(=O)/C=C/c1nc(Nc2cc(F)cc(F)c2)c2ncn(CC(F)F)c2n1 | inconclusive: 63.1 µM [inhibitor, partial curve, poor fit] |  |
| COC(=O)c1nc(Nc2cc(F)cc(F)c2)nc(NC2CCCC2)n1 | inconclusive: 25.1 µM [inhibitor, partial curve, poor fit] |  |
| O=Cc1nc(Nc2cc(F)cc(F)c2)nc(NC2CCCC2)n1 | inconclusive: 22.4 µM [inhibitor, partial curve] |  |
| Cn1c(C(=O)NCCN2CCc3ccccc3C2)cc2c(=O)[nH]c3ccccc3c21 | inconclusive: 35.5 µM [inhibitor, partial curve, poor fit] |  |
| Cc1ccc(NC(=O)/C=C/c2ccc3c(c2)OCO3)cc1S(=O)(=O)N1CCOCC1 | inconclusive: 17.8 µM [inhibitor, full curve] |  |
| O=C(NCCCc1nc2ccccc2n1CCCOc1ccccc1)C1CCCCC1 |  | inactive: -12.3% |
| CCOc1ccc2[nH]c(=O)c(CN(Cc3nnnn3Cc3ccco3)C3CCCCC3)cc2c1 | inconclusive: 35.5 µM [inhibitor, partial curve] |  |
| Cc1ccccc1OCC(=O)NCC(=O)OCC(=O)c1ccc2c(c1)CCCC2 |  | inactive: -3.79% |
| CCOc1ccc(-c2cc3nc(C4CCN(C(=O)OC(C)(C)C)CC4)c(C(=O)O)cn3n2)cc1 |  | inactive: -33% |
| Cc1ccccc1OC(C)C(=O)NCCNC(=O)C(C)Oc1ccccc1C (stereo not given) | inconclusive: 39.8 µM [inhibitor, single point] |  |
| COc1ccc2[nH]c(=O)c(NC(N)=S)nc2c1 | inconclusive: 20 µM [inhibitor, partial curve, poor fit] |  |
| CC1(C)Cc2c(C#N)c(N3CCN(C(=O)c4ccco4)CC3)nc(-c3ccco3)c2CS1 | inconclusive: 31.6 µM [inhibitor, partial curve, poor fit] |  |
| COc1ccc(-c2nc3c(=O)n(C)c(=O)nc-3n(C)n2)cc1 | active: 1.26 µM |  |
| CNC(=O)c1ccc2nc(-c3ccco3)c(-c3ccco3)nc2c1 | active: 7.08 µM |  |
| O=[N+]([O-])c1cc(S(=O)(=O)Nc2cccc(C(F)(F)F)c2)ccc1-n1nnc2ccccc21 | inconclusive: 8.91 µM [inhibitor, full curve] |  |
| O=C(CNC(=O)C1CCCCC1)OCCOc1ccccc1 | inconclusive: 31.6 µM [inhibitor, partial curve, poor fit] |  |

Ordered by SMILES length (descending): part of the list above.

| SMILES | Potency | activity change, negative = inhibition |
| --- | --- | --- |
| O=[N+]([O-])c1cc(S(=O)(=O)Nc2cccc(C(F)(F)F)c2)ccc1-n1nnc2ccccc21 | inconclusive: 8.91 µM [inhibitor, full curve] |  |
| CS(=O)(=O)/C=C/c1nc(Nc2cc(F)cc(F)c2)c2ncn(CC(F)F)c2n1 | inconclusive: 63.1 µM [inhibitor, partial curve, poor fit] |  |
| COC(=O)c1nc(Nc2cc(F)cc(F)c2)nc(NC2CCCC2)n1 | inconclusive: 25.1 µM [inhibitor, partial curve, poor fit] |  |
